Data from PubChem BioAssay AID1671190 (National Center for Advancing Translational Sciences (NCATS), 2021).
About 6,100 (1.1%) of roughly 580,000 compounds were called active. This list was built around the results that the source calls inconclusive (neither active nor inactive); the mix of calls is not that of the screen. The call rests on the fitted dose curve; in most records, active means well fitted inhibition curve with a large enough effect; inconclusive means small, poorly fitted or top-dose-only effect, or another doubt; inactive means no such curve, though single readings can be large or run the other way. Potencies beside an inconclusive call are fits to weak or partial responses and may not hold up.

Sequences of proteins named here, by UniProt entry; tags and fusion partners are left off. A change or cut given only in a name is not applied to a line headed by its entry.
UniProt P18054: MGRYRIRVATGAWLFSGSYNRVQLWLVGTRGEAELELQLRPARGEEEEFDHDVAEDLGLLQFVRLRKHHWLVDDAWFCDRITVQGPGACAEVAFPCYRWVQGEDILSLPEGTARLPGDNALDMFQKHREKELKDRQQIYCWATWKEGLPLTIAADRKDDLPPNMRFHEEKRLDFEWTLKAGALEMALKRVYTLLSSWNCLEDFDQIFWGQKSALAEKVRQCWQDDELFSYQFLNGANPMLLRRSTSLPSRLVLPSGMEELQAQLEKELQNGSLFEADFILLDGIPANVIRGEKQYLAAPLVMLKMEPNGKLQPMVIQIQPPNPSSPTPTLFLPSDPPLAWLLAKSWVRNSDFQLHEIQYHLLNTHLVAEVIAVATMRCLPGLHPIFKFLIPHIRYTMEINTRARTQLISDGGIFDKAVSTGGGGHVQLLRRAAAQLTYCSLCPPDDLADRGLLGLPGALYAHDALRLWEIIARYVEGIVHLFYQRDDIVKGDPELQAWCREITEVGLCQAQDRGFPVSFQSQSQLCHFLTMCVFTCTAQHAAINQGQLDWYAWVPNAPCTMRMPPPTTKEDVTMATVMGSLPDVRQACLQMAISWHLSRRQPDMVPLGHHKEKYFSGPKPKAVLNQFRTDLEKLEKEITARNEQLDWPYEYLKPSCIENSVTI

Target: Polyunsaturated fatty acid lipoxygenase ALOX12 (Homo sapiens) (UniProt P18054)
Experiment: Primary qHTS assay for inhibitors of human arachidonate 12S-lipoxygenase (ALOX12): Round 2
Settings: purified 12hLO, xylenol orange hydroperoxide absorbance; activity change, negative = inhibition: at 108 µM (top of the series) unless noted
Procedure, shortened: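 Purified human 12hLO (150 nM final) in 25 mM Hepes, 0.01% Triton X-100, pH 7.0 was preincubated 15 min at room temperature with compound. Then 40 uM arachidonic acid was added, 30 min. Hydroperoxide was read by Fe-XO absorbance ratio 573/405 nm.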
On the % scale 0 is the no-effect control and ±100 the full control effect; potency means the concentration at half of the fitted maximal effect.

Compound | Potency | activity change, negative = inhibition
O=C(NC1=NCCS1)c1ccc(F)c(S(=O)(=O)N2CCOCC2)c1 | inconclusive: 100 µM [inhibitor, single point] | 
O=C(NCC1CCCO1)c1cc(-c2ccco2)nc2ccccc12 (stereo not given) | inconclusive: 35.5 µM [inhibitor, single point] | 
CCCNc1c(NC(=O)c2cccc(OC)c2)c(=O)oc2ccccc12 | inconclusive: 2 µM [inhibitor, full curve, poor fit] | 
O=C(CSc1nnc(SCC(=O)c2ccco2)s1)c1ccco1 | inconclusive: 2.51 µM [inhibitor, partial curve, poor fit] | 
NC(=O)Cc1csc(NC(=O)CCc2ncc(-c3ccc(Cl)cc3Cl)o2)n1 | inactive | 
Cc1ccc(CCCOC(=O)C[N+]2(C)CCCC2)cc1 | inconclusive: 50.1 µM [inhibitor, partial curve, poor fit] | 
Cc1cc(C)nc(NC(=O)CSc2nccc(C)n2)n1 | inactive | 
Cn1cc(C(=O)NCc2ccccc2)c(=O)c2cc(S(=O)(=O)N3CCCCCC3)ccc21 | inconclusive: 112 µM [inhibitor, partial curve, poor fit] | 
COCc1ccc(-c2c(-c3ccc(OC)cc3)oc(=O)c3cc(OC)c(OC)cc23)cc1 | inactive | 
Nc1nc(-c2ccccc2)c(CCCNc2ccccc2)c(=O)[nH]1 | inconclusive: 100 µM [inhibitor, single point] | 
C=CCn1c(SCc2ccc(Cl)cc2)nc2c1c(=O)n(C)c(=O)n2C | inconclusive: 112 µM [inhibitor, single point] | 
CC(O)c1ccc(-c2ccc(CNC3CCCCC3)o2)cc1 (stereo not given) | inconclusive: 44.7 µM [inhibitor, partial curve, poor fit] | 
CC(=O)C(Sc1ncnc2c1nnn2-c1ccc(F)cc1)C(=O)N(C)C (stereo not given) | inconclusive: 44.7 µM [inhibitor, partial curve, poor fit] | 
O=C1C(n2ccc3ccccc32)c2cc(Cl)ccc2N1Cc1ccc(Cl)nc1 (stereo not given) | inconclusive: 44.7 µM [inhibitor, partial curve, poor fit] | 
Cc1c(Cl)cccc1N=C1SCCN1C(=O)CN1C(=O)NC2(CCCC2)C1=O | inconclusive: 126 µM [inhibitor, partial curve, poor fit] | 
COc1ccccc1C(=O)NCCC(=O)Nc1ccc(S(=O)(=O)N2CCC(C)CC2)cc1 | inactive | 
CC(C)NC(=NCc1ccc(Cl)cc1Cl)Nc1ccccc1 | inconclusive: 44.7 µM [inhibitor, partial curve, poor fit] | 
ClCCn1c(CCl)nc2ccc(Cl)cc21 | active: 10 µM | 
Cc1ccc(S(=O)(=O)N2CCCC2CNC(=O)C(=O)Nc2ccc(F)cc2)cc1 (stereo not given) | inactive | 
Cc1ccc(C)c(NC(=O)Cn2c(=O)n(Cc3cccs3)c(=O)c3cccnc32)c1 | inconclusive: 100 µM [inhibitor, single point] | 
CC(=O)Nc1ccc(C(=O)OCC(=O)N2CCCC2)cc1 | inactive | 
CN1C[C@H](C(=O)NC2(C)OC3(O)[C@@H]4CCCN4C(=O)[C@H](Cc4ccccc4)N3C2=O)CC2c3cccc4[nH]cc(c34)C[C@H]21 (stereo not given in full) | inconclusive: 50.1 µM [inhibitor, partial curve, poor fit] | 

Among those listed so far, these contain fluorine:
Compound | Potency | activity change, negative = inhibition
O=C(NC1=NCCS1)c1ccc(F)c(S(=O)(=O)N2CCOCC2)c1 | inconclusive: 100 µM [inhibitor, single point] | 
CC(=O)C(Sc1ncnc2c1nnn2-c1ccc(F)cc1)C(=O)N(C)C (stereo not given) | inconclusive: 44.7 µM [inhibitor, partial curve, poor fit] | 
Cc1ccc(S(=O)(=O)N2CCCC2CNC(=O)C(=O)Nc2ccc(F)cc2)cc1 (stereo not given) | inactive | 

The results go on:

Compound | Potency | activity change, negative = inhibition
Cc1cc(C(=O)N[C@H](C)c2c(-c3ccc(F)cc3)noc2C(=O)O)nn1C | inconclusive: 63.1 µM [inhibitor, full curve, poor fit] | 
COc1ccc(OC)c(NC(=O)C(CCSC)NS(=O)(=O)c2cccs2)c1 (stereo not given) | inconclusive: 17.8 µM [inhibitor, partial curve, poor fit] | 
c1coc(C2Nc3ccccc3-c3nc4ccccc4n32)c1 (stereo not given) | inconclusive: 44.7 µM [inhibitor, partial curve, poor fit] | 
COc1ccc(-c2nc(SCC(=O)N3CCC(C)CC3)n[nH]2)cc1 |  | inconclusive: -30.2% [inhibitor]
Cc1ccc(Cl)cc1NC(=O)/C(C#N)=C\c1cn(Cc2ccc(F)cc2)c2ccccc12 | inconclusive: 35.5 µM [inhibitor, partial curve, poor fit] | 
COc1cc2c(cc1NC(=O)CN1CCN(S(=O)(=O)c3ccccc3F)CC1)oc1ccccc12 | inactive | 
C[C@@H]1CCCCO[C@@H](CN(C)Cc2ccc(C(F)(F)F)cc2)[C@@H](C)CN([C@H](C)CO)C(=O)c2cc(N(C)C)ccc2O1 | inconclusive: 50.1 µM [inhibitor, partial curve, poor fit] | 
Cc1ccc(Nc2ccc(NCc3ccccc3)nn2)cc1C | inactive | 
O=C(Cc1csc(N2CCOCC2)n1)N/N=C/c1ccc(Cl)cc1Cl | inconclusive: 35.5 µM [inhibitor, partial curve, poor fit] | 
COc1ccc(Cl)cc1N(C(=O)c1ccco1)C(C(=O)NC1CCCC1)c1ccncc1 (stereo not given) | inconclusive: 112 µM [inhibitor, partial curve, poor fit] | 
COc1ccc(CN2CCN(C(=O)c3cccc4ccccc34)CC2)cc1OC | inactive | 
COc1ccc2sc(N3C(=O)C4CC=C(C)CC4C3=O)nc2c1 (stereo not given) | inconclusive: 44.7 µM [inhibitor, partial curve, poor fit] | 
CCn1c(-c2csc3c2CCC(C)C3)n[nH]c1=S (stereo not given) | inconclusive: 39.8 µM [inhibitor, partial curve, poor fit] | 
O=C(C1=C(O)C(=O)N(CCc2ccccc2)C1c1ccncc1)c1ccco1 (stereo not given) | inconclusive: 56.2 µM [inhibitor, partial curve, poor fit] | 
CCCc1cc(=O)n2[nH]c(-c3cc(OC)c(OC)c(OC)c3)nc2n1 | inconclusive: 31.6 µM [inhibitor, partial curve, poor fit] | 
Cc1nn(CCC#N)c(N)c1C1(O)C(=O)Nc2c(Cl)cc(Cl)cc21 (stereo not given) | inactive | 
COc1ccc2nc(COC(=O)c3cccs3)c(C(C)=O)[n+]([O-])c2c1 | active: 31.6 µM | 
O=C(/C=C/c1ccc(Br)cc1)NC(=S)N1CCOCC1 | inconclusive: 7.08 µM [inhibitor, partial curve, poor fit] | 
O=C(COC(=O)c1cccc(NS(=O)(=O)c2ccc(F)c(F)c2)c1)NC(=O)NC1CCCCC1 | inactive | 
CCOC(=O)C1=C(C)N(c2ccccc2)C(=O)/C1=C\c1ccco1 | inconclusive: 7.94 µM [inhibitor, full curve] | 
CC(NS(=O)(=O)c1cc(F)cc(F)c1)C(=O)N1CCCC1 (stereo not given) | inconclusive: 112 µM [inhibitor, single point] | 
COc1ccc(/C=C2\CCCc3c2nc2ccc(C)cc2c3C(=O)O)cc1O | inconclusive: 112 µM [inhibitor, single point] | 

Compound | Potency | activity change, negative = inhibition
CCOc1ccc(-c2ccnc(N3CCNC(C)C3)n2)cc1C(=O)O (stereo not given) | inconclusive: 25.1 µM [inhibitor, full curve, poor fit] | 
COc1ccc(CN(C)C(=O)Cn2cc(C)c(=O)[nH]c2=O)cc1OC | inactive | 
CC(C)CC(=O)NC(=S)N(Cc1ccccc1)Cc1ccccc1 | inconclusive: 50.1 µM [inhibitor, partial curve, poor fit] | 
CCc1ncc(C(=O)Nc2nn(CC(F)(F)F)c3cc(OC(C)C)ccc23)cn1 | inactive | 
C=CCN1C[C@@H]2CN(C(=O)CCc3ccc(OC)cc3)C[C@]2(C(=O)O)C1 | inactive | 
COc1ccc(C)cc1NC(=S)N1CCN(c2ccccn2)CC1 | inactive | 
O=C(NCc1ccc(F)cc1)c1cc2c(s1)-c1ccccc1SC2 | inactive | 
C/C(=N/Nc1ccc(S(N)(=O)=O)cc1[N+](=O)[O-])c1cc(Cl)ccc1Cl | inconclusive: 50.1 µM [inhibitor, partial curve, poor fit] | 
C#CCOCCOCCOCCNc1nc(N2CCN(C(=O)C([C@@H](C)O)n3cc([C@@H](N)CCCCN)nn3)CC2)nc(N2CCN(C(=O)[C@H](CCC(=O)O)n3cc([C@@H](N)CCCCN)nn3)CC2)n1 (stereo not given in full) | inconclusive: 44.7 µM [inhibitor, partial curve, poor fit] | 
COc1ccc(CNC(=O)/C=C/c2ccc(C)cc2)cc1 | inconclusive: 22.4 µM [inhibitor, partial curve, poor fit] | 
O=C(Nc1ccc(Cl)cc1)c1nc2c(o1)CCN(Cc1cccc(F)c1F)CC2 | inconclusive: 70.8 µM [inhibitor, partial curve, poor fit] | 
COc1ccc(C(O)c2nc(-c3cccc(C(F)(F)F)c3)cs2)cc1 (stereo not given) | inconclusive: 44.7 µM [inhibitor, partial curve, poor fit] | 
O=[S+]([O-])(c1cccnc1)c1nnn2c1nc(N1CCC(F)CC1)c1ccccc12 |  | inactive: 8.95% [at 6.33 µM]
CCCCNC(=S)N1CCC(Cc2ccccc2)CC1 | inconclusive: 50.1 µM [inhibitor, partial curve, poor fit] | 
Cc1ccc(C(=O)Nc2nc(-c3ccccc3)c(-c3ccccc3)o2)cc1 | inactive | 
CCOc1ncccc1C(=O)OCc1cc(=O)oc2c(C)c(C)ccc12 | inactive | 
COc1cccc(NCc2cc(=O)n3[nH]c(-c4ccc(C)cc4)nc3n2)c1 | active: 39.8 µM | 
S=c1nc(-c2sccc2OCc2ccc(Cl)cc2Cl)[nH][nH]1 | active: 28.2 µM | 
CC(=O)NC/C(C)=N\Nc1ccc([N+](=O)[O-])cc1 | inconclusive: 44.7 µM [inhibitor, partial curve, poor fit] | 
N#C/C(=N\Nc1cccc([N+](=O)[O-])c1)C(=O)c1ccc(Br)cc1 | active: 39.8 µM | 
Cc1cc(C)c2cc(C(=O)OCC(=O)N3CCCCC3C)[nH]c2c1 (stereo not given) | inactive | 
